# In all, about 320,000 compounds went through this assay and about 22,000 (6.9%) were called active. The inconclusive results got no clear call from the source; some entries with a clear call stand among them for comparison. Calls follow the shape of the dose curve; as a rule, active = well fitted inhibition curve with a large enough effect; inconclusive = small, poorly fitted or top-dose-only effect, or another doubt; inactive = no such curve, though single readings can be large or run the other way. Potencies beside an inconclusive call are fits to weak or partial responses and may not hold up.
# Experiment: Primary qHTS for delayed death inhibitors of the malarial parasite plastid, 96 hour incubation
# Conditions: P. falciparum luciferase reporter growth; series mostly up to 28.7 µM
# In short: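 P. falciparum expressing integrated firefly luciferase, in erythrocytes at 2% hematocrit, 0.05% parasitemia, incubated with compounds 96 h at 37 C, 5% CO2. Growth inhibition read as loss of luminescence; two-generation exposure targets delayed-death apicoplast inhibitors.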
# Potency is read from the fitted curve at half-maximal effect.
row,Structure (SMILES),Potency
1,COC(=O)CNc1nc(-c2ccccc2F)nc2ccccc12,"inconclusive: 2.33 µM [inhibitor, single point]"
2,Cc1n[nH]c(C)c1S(=O)(=O)N1CCCC(C(=O)N2CCc3ccccc32)C1 (centres undefined),"inconclusive: 18.5 µM [inhibitor, single point]"
3,COc1cc(C(=O)NCCCC2CCCC2)ccc1OC1CCN(C(C)=O)CC1,"inconclusive: 5.86 µM [inhibitor, partial curve]"
4,N#C/C(=C1\CCCN1)c1nc(-c2ccccc2)cs1,"inconclusive: 10.4 µM [inhibitor, partial curve, poor fit]"
5,Cc1ccc(C)c(S(=O)(=O)N2CCN(C(=O)c3n[nH]c(=O)c4ccccc34)CC2)c1,"inconclusive: 0.165 µM [inhibitor, full curve, poor fit]"
6,COCCN(C(=O)COC(=O)CCC(=O)c1cccs1)c1c(N)n(Cc2ccccc2)c(=O)[nH]c1=O,inactive
7,O=C(NCc1cccs1)c1cc(C2CC2)on1,inactive
8,O=C(CSc1nnc(Cc2cc(=O)[nH]c(=O)[nH]2)n1-c1ccc(F)cc1)NC1CCCC1,active: 5.86 µM
9,Cc1ccc(C(=O)Nc2cccnc2)cc1S(=O)(=O)N1CCCC1,"inconclusive: 11.7 µM [inhibitor, single point]"
10,COC(=O)Cc1ccc(NC(=O)c2ccc3c(c2)C(=O)N(CC2CCCO2)C3=O)cc1 (centres undefined),"inconclusive: 3.29 µM [inhibitor, full curve, poor fit]"
11,COc1ccc([C@@H]2[C@@H]3C(=O)N(C(C)(C)C)C(=O)[C@@H]3[C@]3(CC(C)C)C(=O)N(c4cccc(F)c4)C(=O)N23)cc1,"inconclusive: 10.4 µM [inhibitor, single point]"
12,O=C(NC(=S)NNS(=O)(=O)c1ccccc1)c1ccc([N+](=O)[O-])cc1,"inconclusive: 4.65 µM [inhibitor, partial curve, poor fit]"
13,NC(=O)c1cc([N+](=O)[O-])ccc1NCC1CCCCC1,"inconclusive: 18.5 µM [inhibitor, single point]"
14,Cc1ccc(/C(N)=N/OC(=O)N2CCOCC2)cc1,active: 1.04 µM
15,Cn1c(SCC(=O)NCCN2C(=O)CSC2=O)nc2ccccc2c1=O,inactive
16,O=C(C1CCCO1)N1CCc2ccccc21 (centres undefined),"inconclusive: 0.586 µM [inhibitor, full curve, poor fit]"
17,COc1ccc(CN2CCCC(C(=O)N3CCc4ccccc4C3)C2)cc1OC (centres undefined),"inconclusive: 2.33 µM [inhibitor, partial curve, poor fit]"
18,Cc1ccc(S(=O)(=O)NCCC(c2ccc(F)cc2)c2ccco2)cc1 (centres undefined),inactive
19,N#Cc1c(-c2ccccc2)nc2n(-c3ccccc3)nc(C(=O)Nc3ccccc3)n2c1=O,active: 0.738 µM
20,CC1CCCN(S(=O)(=O)c2ccccc2[N+](=O)[O-])C1 (centres undefined),inactive
21,COc1cccc(CNc2ccc3c(c2)ncn3C(C)C)c1OC,inactive
22,COc1cc2c(cc1NC(=O)Cc1ccc(C)cc1)oc1ccccc12,inactive
23,O=C(CCC(=O)Nc1ccc(Cl)cc1Cl)NNC(=O)Nc1ccccc1,"inconclusive: 2.33 µM [inhibitor, full curve]"

row,Structure (SMILES),Potency
1,COc1cccc(CC(NC(C)=O)C(=O)NC2CCN(c3c(Cc4ccccc4)c(C)nc4ncnn34)CC2)c1 (centres undefined),active: 10.4 µM
2,Cc1ccc(-n2c(C)nnc2SCC(=O)N2CCc3ccccc3C2)cc1C,"inconclusive: 16.5 µM [inhibitor, single point]"
3,CCOc1cc(C=O)ccc1OCC(=O)NC(C)(C)C,"inconclusive: 18.5 µM [inhibitor, single point]"
4,O=C1C=C(/C=C/C2C=CC=CC2)C[C@@H](c2ccc(Cl)cc2)C1 (some centres undefined),"inconclusive: 18.5 µM [inhibitor, single point]"
5,c1ccc2c3c(c(CN4CCCCC4)cc2c1)COC3,"inconclusive: 2.62 µM [inhibitor, partial curve, poor fit]"
6,CCOc1ccc(Oc2ccc(NC(=O)[C@@H](NC(N)=O)[C@@H](C)CC)cc2)cc1,inactive
7,NCCNC(=O)Cn1c(=O)c2c3c(sc2n(Cc2ccccc2)c1=O)CCCC3,"inconclusive: 10.4 µM [inhibitor, single point]"
8,CCN1/C(=C/c2ccc3cccc(C)c3[n+]2CC)Sc2ccccc21,"inconclusive: 0.104 µM [inhibitor, full curve]"
9,Cc1ccc(S(=O)(=O)N2CCCCC2)cc1C(=O)Nc1cccnc1,inactive
10,Cc1ccc(S(=O)(=O)NC(=NC(Cc2ccccc2)C(=O)O)c2ccccc2)cc1 (centres undefined),"inconclusive: 13.1 µM [inhibitor, single point]"
11,COc1ccc(SC[C@H](Cc2ccccc2)N2CC[C@@H](NC(=O)OCc3ccccc3)CCC2=O)cc1,"inconclusive: 1.85 µM [inhibitor, full curve]"
12,COc1cccc(CN(C)C(=O)c2ccc(NC(=O)CC3SC(N4CCCC4)=NC3=O)cc2)c1OC (centres undefined),active: 6.57 µM
13,OCCCc1nc2n(n1)C(c1cccs1)C=C(c1ccc(Br)cc1)N2 (centres undefined),"inconclusive: 8.28 µM [inhibitor, partial curve, poor fit]"
14,CCCCCn1cnc2c(=S)nc(N)[nH]c21,"inconclusive: 4.15 µM [inhibitor, full curve, poor fit]"
15,CCCCCCNC(=O)c1cn(CC)c2cc(N3CCN(C)CC3)c(F)cc2c1=O,active: 2.62 µM
16,O=C1CSC(c2ccccc2)N1c1nc(-c2ccc(Cl)cc2Cl)cs1 (centres undefined),"inconclusive: 18.5 µM [inhibitor, single point]"
17,C=CCN1C(=O)[C@@H]2Cc3c([nH]c4ccccc34)C(c3cc(OC)c(OC)c(OC)c3)N2C1=S (some centres undefined),"inconclusive: 11.7 µM [inhibitor, partial curve]"
18,Cc1cccc(N(CC(=O)NC2CCCCC2)C(=O)CCC(=O)Nc2ccccn2)c1,"inconclusive: 10.4 µM [inhibitor, single point]"
19,COc1cccc(CNC(=O)CCS(=O)(=O)c2cccc3nonc23)c1,inactive
20,CC/C(=N\NC(=O)c1ccc2c(c1)OCO2)c1ccccc1,"inconclusive: 2.94 µM [inhibitor, partial curve]"
21,CCOC(=O)c1cc(-c2ccccc2)sc1NC(=O)c1ccc(OC)c(OC)c1,"inconclusive: 18.5 µM [inhibitor, single point]"
22,C[C@@H]1CC=C[C@H]2[C@H]1C(=O)N(Cc1ccccc1)[C@H]2c1ccc(/C=C/c2ccccc2)cc1F,"inconclusive: 18.5 µM [inhibitor, single point]"
23,CN1CCC(N(C)S(=O)(=O)c2ccc(NC(=O)COc3ccc(F)cc3Cl)cc2)CC1,"inconclusive: 11.7 µM [inhibitor, single point]"

# No new results follow: 19 of the compounds above.
row,Structure (SMILES),Potency
10,COC(=O)Cc1ccc(NC(=O)c2ccc3c(c2)C(=O)N(CC2CCCO2)C3=O)cc1 (centres undefined),"inconclusive: 3.29 µM [inhibitor, full curve, poor fit]"
11,COc1ccc([C@@H]2[C@@H]3C(=O)N(C(C)(C)C)C(=O)[C@@H]3[C@]3(CC(C)C)C(=O)N(c4cccc(F)c4)C(=O)N23)cc1,"inconclusive: 10.4 µM [inhibitor, single point]"
12,O=C(NC(=S)NNS(=O)(=O)c1ccccc1)c1ccc([N+](=O)[O-])cc1,"inconclusive: 4.65 µM [inhibitor, partial curve, poor fit]"
13,NC(=O)c1cc([N+](=O)[O-])ccc1NCC1CCCCC1,"inconclusive: 18.5 µM [inhibitor, single point]"
14,Cc1ccc(/C(N)=N/OC(=O)N2CCOCC2)cc1,active: 1.04 µM
15,Cn1c(SCC(=O)NCCN2C(=O)CSC2=O)nc2ccccc2c1=O,inactive
16,O=C(C1CCCO1)N1CCc2ccccc21 (centres undefined),"inconclusive: 0.586 µM [inhibitor, full curve, poor fit]"
17,COc1ccc(CN2CCCC(C(=O)N3CCc4ccccc4C3)C2)cc1OC (centres undefined),"inconclusive: 2.33 µM [inhibitor, partial curve, poor fit]"
18,Cc1ccc(S(=O)(=O)NCCC(c2ccc(F)cc2)c2ccco2)cc1 (centres undefined),inactive
19,N#Cc1c(-c2ccccc2)nc2n(-c3ccccc3)nc(C(=O)Nc3ccccc3)n2c1=O,active: 0.738 µM
20,CC1CCCN(S(=O)(=O)c2ccccc2[N+](=O)[O-])C1 (centres undefined),inactive
21,COc1cccc(CNc2ccc3c(c2)ncn3C(C)C)c1OC,inactive
22,COc1cc2c(cc1NC(=O)Cc1ccc(C)cc1)oc1ccccc12,inactive
23,O=C(CCC(=O)Nc1ccc(Cl)cc1Cl)NNC(=O)Nc1ccccc1,"inconclusive: 2.33 µM [inhibitor, full curve]"
1,COc1cccc(CC(NC(C)=O)C(=O)NC2CCN(c3c(Cc4ccccc4)c(C)nc4ncnn34)CC2)c1 (centres undefined),active: 10.4 µM
2,Cc1ccc(-n2c(C)nnc2SCC(=O)N2CCc3ccccc3C2)cc1C,"inconclusive: 16.5 µM [inhibitor, single point]"
3,CCOc1cc(C=O)ccc1OCC(=O)NC(C)(C)C,"inconclusive: 18.5 µM [inhibitor, single point]"
4,O=C1C=C(/C=C/C2C=CC=CC2)C[C@@H](c2ccc(Cl)cc2)C1 (some centres undefined),"inconclusive: 18.5 µM [inhibitor, single point]"
5,c1ccc2c3c(c(CN4CCCCC4)cc2c1)COC3,"inconclusive: 2.62 µM [inhibitor, partial curve, poor fit]"

# Continued:

row,Structure (SMILES),Potency
1,OCCNC(=S)NCCc1ccccc1,inactive
2,O=C(COC(=O)CCC(=O)c1ccccc1)Nc1nnc(-c2ccccc2)o1,inactive
3,Cc1ccc2[nH]c3c(c2c1)CN(C(=O)CN1CCCCC1)CC3,inactive
4,CC(C(=O)NCc1ccco1)n1cc(C(=O)c2ccco2)c2ccccc21 (centres undefined),inactive
5,S=c1[nH]nc(-c2ccccc2)n1/N=C/c1ccc(-c2ccccc2Cl)o1,"inconclusive: 18.5 µM [inhibitor, partial curve, poor fit]"
6,CCNC(=S)N/N=C/c1cn(Cc2ccccc2F)c2ccccc12,"inconclusive: 18.5 µM [inhibitor, single point]"
7,Cc1cccc(C)c1NC(=O)CN(C)C(=O)Cc1cccc(C(F)(F)F)c1,inactive
8,COc1ccccc1NC(=O)CSc1nnc(CNC(=O)c2ccccc2F)o1,active: 1.65 µM
9,O=C1OCc2ccc(NC(=O)C3CC3)cc21,inactive
10,CN(C)c1ccc(C=NCCC2(c3ccccc3)CCOC(C)(C)C2)cc1 (centres undefined),"inconclusive: 18.5 µM [inhibitor, single point]"
11,CSc1cccc(CN2CCC(Oc3cccc(C(=O)N4CCCC4)c3)CC2)c1,"inconclusive: 4.65 µM [inhibitor, partial curve, poor fit]"
12,COc1ccc(/C=C/C(=O)Nc2nc(C)cc(C)n2)cc1OC,"inconclusive: 1.85 µM [inhibitor, full curve, poor fit]"
13,COc1ccccc1C(=O)NCC1CCN(c2ccc(S(=O)(=O)N3CCOCC3)cc2)CC1,active: 3.29 µM
14,CC(C)N1CCN(Cc2ccc(Sc3nncn3C)o2)CC1CCO (centres undefined),inactive
15,O=C(N/N=C/c1ccc(O)cc1O)C(=O)N/N=C/c1ccc(O)cc1O,inactive
16,COc1ccc(-c2csc(NC(=O)CCNC(=O)c3ccco3)n2)cc1OC,"inconclusive: 5.22 µM [inhibitor, partial curve, poor fit]"
17,Nc1ccccc1NC1=CC(=O)CC(c2ccccc2)C1 (centres undefined),"inconclusive: 18.5 µM [inhibitor, single point]"
18,COc1cc(/C=C2\SC(c3ccc(C)cc3)=NC2=O)ccc1O,"inconclusive: 4.15 µM [inhibitor, single point]"
19,CC1(C)Cc2cccc(Oc3ccc(S(=O)(=O)N4CCCCC4)cn3)c2O1,"inconclusive: 10.4 µM [inhibitor, single point]"
20,CCSc1nnc(-c2cc(Br)ccc2N)c(=O)[nH]1,inactive
21,CCn1c(SCC(=O)Nc2ccc3c(c2)oc2ccccc23)nnc1-c1ccc(N)cc1,"inconclusive: 10.4 µM [inhibitor, single point]"
22,Cc1cc(Cl)ccc1OCCCC(=O)NCc1cccs1,"inconclusive: 13.1 µM [inhibitor, single point]"
23,Cc1ccc(-c2nn(-c3ccccc3)cc2/C=N/O)cc1,"inconclusive: 16.5 µM [inhibitor, single point]"

# Reference: PubChem BioAssay AID504834 (National Center for Advancing Translational Sciences (NCATS), 2011)
